Compound in the test: Nc1nc2c(ncn2[C@@H]2O[C@H](COP(=O)(O)OP(=O)(O)OP(=O)(O)O)[C@@H](O)[C@H]2O)c(=O)[nH]1 [guanosine triphosphate]
Put plainly: NP40-soluble protein abundance relative to vehicle (solubility fold change) (ratio); higher = more soluble protein in presence of GTP. On the procedure:
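Solubility proteome profiling in Jurkat crude lysate. Lysate was treated with Mg-GTP (0.1-10 mM) for 10 min at room temperature and 3 min at 37 °C, then solubilised with 0.8% NP40 and benzonase, followed by ultracentrifugation. Proteins were quantified by TMT10 LC-MS/MS; the value is the NP40-soluble abundance relative to the NP40-processed vehicle, from 3 independent experiments.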

Sequences of proteins named here, by UniProt entry; tags and fusion partners are left off. A change or cut given only in a name is not applied to a line headed by its entry.
UniProt A2RUC4: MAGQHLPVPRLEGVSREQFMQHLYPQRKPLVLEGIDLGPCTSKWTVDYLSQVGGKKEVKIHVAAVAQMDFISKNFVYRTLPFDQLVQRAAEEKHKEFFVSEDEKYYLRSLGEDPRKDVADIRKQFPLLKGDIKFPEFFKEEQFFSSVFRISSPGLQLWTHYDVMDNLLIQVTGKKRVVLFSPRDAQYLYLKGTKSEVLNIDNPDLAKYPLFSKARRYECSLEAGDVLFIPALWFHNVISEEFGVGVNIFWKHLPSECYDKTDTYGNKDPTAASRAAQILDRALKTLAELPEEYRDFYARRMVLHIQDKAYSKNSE
UniProt O15533, whole entry: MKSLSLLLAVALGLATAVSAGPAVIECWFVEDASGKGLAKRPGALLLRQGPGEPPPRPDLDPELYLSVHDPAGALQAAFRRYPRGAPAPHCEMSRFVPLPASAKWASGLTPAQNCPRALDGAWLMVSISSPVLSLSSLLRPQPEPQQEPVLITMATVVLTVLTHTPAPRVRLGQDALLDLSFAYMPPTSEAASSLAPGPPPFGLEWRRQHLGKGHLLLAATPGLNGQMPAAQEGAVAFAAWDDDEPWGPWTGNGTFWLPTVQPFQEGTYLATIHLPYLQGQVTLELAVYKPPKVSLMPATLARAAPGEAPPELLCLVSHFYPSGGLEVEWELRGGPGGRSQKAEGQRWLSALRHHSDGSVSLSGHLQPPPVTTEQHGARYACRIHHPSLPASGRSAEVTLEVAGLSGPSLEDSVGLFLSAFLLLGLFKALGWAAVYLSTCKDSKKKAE
UniProt Q8IZP0: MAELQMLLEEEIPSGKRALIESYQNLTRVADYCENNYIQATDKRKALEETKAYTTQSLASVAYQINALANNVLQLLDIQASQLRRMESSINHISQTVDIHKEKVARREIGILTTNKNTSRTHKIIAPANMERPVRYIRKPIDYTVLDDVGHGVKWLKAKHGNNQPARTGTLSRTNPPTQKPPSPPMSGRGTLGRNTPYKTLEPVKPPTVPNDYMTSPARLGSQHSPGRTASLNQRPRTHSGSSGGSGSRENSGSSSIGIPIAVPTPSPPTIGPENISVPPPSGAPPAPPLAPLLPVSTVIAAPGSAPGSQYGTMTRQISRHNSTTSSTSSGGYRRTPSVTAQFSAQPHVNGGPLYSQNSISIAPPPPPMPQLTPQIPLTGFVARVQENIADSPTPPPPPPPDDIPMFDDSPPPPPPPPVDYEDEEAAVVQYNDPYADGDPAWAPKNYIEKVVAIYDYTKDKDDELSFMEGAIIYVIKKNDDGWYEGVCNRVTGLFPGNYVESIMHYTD

± gives the standard deviation of the averaged measurements. The list shows a part of the results.

Turning to “A0A0A6YYD5|A0A0B4J2E0|A0A5A8 and related entries (UniProt P01733+A0A5A8)”, the NP40-soluble protein abundance stood at 1.07 ± 0.072 (concentration: 0.1mM); 1.04 ± 0.029 (concentration: 0.5mM); 1.06 ± 0.042 (concentration: 1mM); 1.03 ± 0.023 (concentration: 2mM); 1.05 ± 0.072 (concentration: 4mM); 1.05 ± 0.068 (concentration: 6mM). Moreover, the NP40-soluble protein abundance runs as follows: (concentration: 8mM) 1.11 ± 0.054; (concentration: 10mM) 1.01 ± 0.045.

Regarding UniProt A2RUC4, the NP40-soluble protein abundance is, setting by setting: (concentration: 0.1mM) 1.01 ± 0.074; (concentration: 0.5mM) 1.01 ± 0.077; (concentration: 1mM) 0.959 ± 0.038; (concentration: 2mM) 0.948 ± 0.055; (concentration: 4mM) 0.9 ± 0.047; (concentration: 6mM) 0.885 ± 0.018. Further, the NP40-soluble protein abundance is 0.911 ± 0.015 (concentration: 8mM) and 0.855 ± 0.079 (concentration: 10mM).

In the case of “A0A0A0MSV9|A0A0G2JH37|A0A0G2JKZ1|A2AB90 and related entries (UniProt O15533)”, the NP40-soluble protein abundance is, setting by setting: (concentration: 0.1mM) 0.986 ± 0.092; (concentration: 0.5mM) 0.965 ± 0.072; (concentration: 1mM) 0.959 ± 0.073; (concentration: 2mM) 0.908 ± 0.085; (concentration: 4mM) 0.921 ± 0.042; (concentration: 6mM) 0.91 ± 0.054. The NP40-soluble protein abundance (concentration: 8mM) is 0.903 ± 0.065 and the NP40-soluble protein abundance (concentration: 10mM) amounted to 0.874 ± 0.079.

As for “A0A0D9SGF6|Q13813 and related entries (UniProt Q13813)”, the NP40-soluble protein abundance (concentration: 0.1mM) was found to be 0.92 ± 0.054; the NP40-soluble protein abundance (concentration: 0.5mM) was found to be 0.96 ± 0.073; the NP40-soluble protein abundance (concentration: 1mM) turned out to be 0.96 ± 0.063; the NP40-soluble protein abundance (concentration: 2mM) was 0.956 ± 0.066; the NP40-soluble protein abundance (concentration: 4mM) is 1.04 ± 0.067; the NP40-soluble protein abundance (concentration: 6mM) is 1.17 ± 0.076. For the same target, the NP40-soluble protein abundance reads like this: (concentration: 8mM) 1.28 ± 0.079; (concentration: 10mM) 1.33 ± 0.12.

“A0A0A0MRT6|B6VEX4 and related entries (UniProt Q8IZP0)”: the NP40-soluble protein abundance amounted to 0.915 ± 0.016 (concentration: 0.1mM); 0.869 ± 0.051 (concentration: 0.5mM); 1.04 ± 0.032 (concentration: 1mM); 1.05 ± 0.037 (concentration: 2mM); 1.06 ± 0.013 (concentration: 4mM); 0.994 ± 0.02 (concentration: 6mM). In addition, the NP40-soluble protein abundance turned out to be 0.971 ± 0.025 (concentration: 8mM) and 1.04 ± 0.072 (concentration: 10mM).

The values are drawn from the supplement of paper PMC6411743.
